Measurements: patent publication US20210253603A1, “MAIN GROUP METAL COMPLEX AND ITS PREPARATION METHOD AND USE” (PEKING UNIVERSITY, priority 2018, published 2021)

Test system: human umbilical vein endothelial cells HUVEC
Test: In vitro anticancer activities of complexes (Experiment 2)
Type: cell-based
Conditions: IC50(HUVEC)/IC50(Hela)
Description: The cell lines used in the experiments were obtained from Peking University.
The safety index (SI) was calculated according to the following equation:
^bSafety Index (SI)=IC50(HUVEC)/IC50(Hela)

SMILES | Safety Index (SI)
C#CCN(C)c1ccc2c(c1)[O][Ga-3]13([N+]#CC)([N+]#CC)[O]c4cc(N(CC)CC)ccc4C=[N+]1C(C#N)=C(C#N)[N+]3=C2.[Cl-] [Complex 2] | 0.30
CC#[N+][Ga-3]123([N+]#CC)[O]c4ccccc4C=[N+]1C(C#N)=C(C#N)[N+]2=Cc1ccccc1[O]3.[Cl-] [Complex 4] | 0.08
CC#[N+][Ga-3]123([N+]#CC)[O]c4cc(N(C)C)ccc4C=[N+]1C(C#N)=C(C#N)[N+]2=Cc1ccc(N(C)C)cc1[O]3.[Cl-] [Complex 6] | 0.64
CC#[N+][Ga-3]123([N+]#CC)[O]c4cc(N5CCCC5)ccc4C=[N+]1C(C#N)=C(C#N)[N+]2=Cc1ccc(N2CCCC2)cc1[O]3.[Cl-] [Complex 7] | 0.30
C#CCN(C)c1ccc2c(c1)[O][Ga-3]13([N+]#CC)([N+]#CC)[O]c4cc(N(C)CC#C)ccc4C=[N+]1C(C#N)=C(C#N)[N+]3=C2.[Cl-] [Complex 8] | 0.78
CC#[N+][Ga-3]123([N+]#CC)[O]c4cc(N(CC)CC)ccc4C=[N+]1c1ccccc1[N+]2=Cc1ccc(N(CC)CC)cc1[O]3.[Cl-] [Complex 9] | 0.75
CC#[N+][Ga-3]123([N+]#CC)[O]c4c(ccc5c4SCCN5C)C=[N+]1C(C#N)=C(C#N)[N+]2=Cc1ccc2c(c1[O]3)SCCN2C.[Cl-] [Complex 10] | 3.79
CC#[N+][Ga-3]123([N+]#CC)[O]c4cc5c(cc4C=[N+]1C(C#N)=C(C#N)[N+]2=Cc1cc2c(cc1[O]3)N(C)CCS2)SCCN5C.[Cl-] [Complex 12] | 1.29
CC#[N+][Ga-3]123([N+]#CC)[O]c4cc(N(C)CCCC)ccc4C=[N+]1C(C#N)=C(C#N)[N+]2=Cc1ccc(N(C)CCCC)cc1[O]3.[Cl-] [Complex 13] | 0.16
CC#[N+][Ga-3]123([N+]#CC)[O]c4ccccc4C=[N+]1c1ccccc1[N+]2=Cc1ccccc1[O]3.[Cl-] [Complex 14] | 8.33
CC#[N+][Ga-3]123([N+]#CC)[O]c4cc(N(CC)CC)ccc4C=[N+]1c1ccncc1[N+]2=Cc1ccc(N(CC)CC)cc1[O]3.[Cl-] [Complex 15] | 0.78
